Measurements published in patent US20240343803A1.
These are yes or no findings as the source states them, for the method shown. Binding can be weak; no strength is given.

Protein sequences, listed by entry. Tags and fused reporters are not part of them. Lines headed by an entry give the natural chain unless they say otherwise; changes in a name come on top.
UniProt Q6DKI7: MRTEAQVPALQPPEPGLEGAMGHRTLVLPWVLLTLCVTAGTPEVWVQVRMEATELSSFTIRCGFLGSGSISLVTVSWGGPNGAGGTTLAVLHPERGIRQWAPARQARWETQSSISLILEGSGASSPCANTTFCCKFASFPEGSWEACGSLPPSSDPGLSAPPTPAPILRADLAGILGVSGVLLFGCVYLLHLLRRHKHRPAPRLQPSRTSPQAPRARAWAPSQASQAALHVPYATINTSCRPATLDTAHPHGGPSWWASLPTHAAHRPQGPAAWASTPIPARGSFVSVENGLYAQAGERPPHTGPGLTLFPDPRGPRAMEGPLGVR

Assays:
[1] = molecular target: human PVRIG-his (AcroBiosystems, Cat NO. PVG-H52H4) (human) (UniProt Q6DKI7); experiment: ELISA, coated human PVRIG-his
[2] = molecular target: human PVRIG-his (AcroBiosystems, Cat NO. PVG-H52H4) (human) (UniProt Q6DKI7); experiment: competition ELISA on coated human PVRIG-his; blocked ligand human PVRL2-mFc
[3] = molecular target: human PVRIG-his (AcroBiosystems, Cat NO. PVG-H52H4) (human) (UniProt Q6DKI7); experiment: ELISA
[4] = molecular target: human PVRIG-his (AcroBiosystems, Cat NO. PVG-H52H4) (human) (UniProt Q6DKI7); experiment: BIAcore
[5] = molecular target: full-length cynomolgus monkey TIGIT on CHO-K1 cells (CHO-K1 cynomolgus monkey TIGIT) (cynomolgus monkey); experiment: FACS, CHO-K1 cynomolgus monkey TIGIT cells
[6] = molecular target: full-length cynomolgus monkey TIGIT on CHO-K1 cells (CHO-K1 cynomolgus monkey TIGIT) (cynomolgus monkey); experiment: FACS

Binder | binding [1] | binding [2] | binding [3] | binding [4] | binding [5] | binding [6]
COM701-hIgG4 (antibody, V domains shown) VH: QVQLVQSGAEVKKPGASVKVSCKASGYTFTDYNINWVRQAPGQGLEWMGYIYPYIGGSGYAQKFQGRVTMTRDTSTSTVYMELSSLRSEDTAVYYCAREDKTARNAMDYWGQGTLVTVSS VL: DIQMTQSPSSLSASVGDRVTITCRVSENIYSNLAWYQQKPGKAPKLLIYEATNLAEGVPSRFSGSGSGTDFTLTISSLQPEDFATYYCQHFWGTPYTFGQGTKLEIK | binds | binds | – | – | – | –
PVRIG-A105 (VHH, not shown: a dimerising Fc or GST) VHH: EVQLVESGGGLVQAGGSLRLSCAASGRTFDRHTMTWFRQAPGKEREFVATASRIPGDTYYSHSVKGRFTISRDNAKNTVYLQLNNLKPEDTAVYYCAATSAYCSEVDCYEKGSWYDNWGQGIQVTVSS | – | binds | binds | binds | – | –
TIGIT-005-H2L1d (antibody, V domains shown) VH: EVQLVQSGAEVKKPGASVKVSCKASGYAFTNYLIEWVRQAPGQRLEWMGVINPGSGGTNYKEKFKGRVTITADKSSSTAYMELSSLRSEDTAVYYCARGEYFFFDYWGQGTTVTVSS VL: DIVMTQSPDSLAVSLGERATINCKASQHVSNAVAWYQHKPGQSPKLLIYSASYRYTGVPDRFSGSGSGTDFTLTISSLQAEDVAVYYCQQHYNTPHTFGGGTKVEIK | – | – | – | – | binds | binds
COM701-hIgG1 (antibody, V domains shown) VH: QVQLVQSGAEVKKPGASVKVSCKASGYTFTDYNINWVRQAPGQGLEWMGYIYPYIGGSGYAQKFQGRVTMTRDTSTSTVYMELSSLRSEDTAVYYCAREDKTARNAMDYWGQGTLVTVSS VL: DIQMTQSPSSLSASVGDRVTITCRVSENIYSNLAWYQQKPGKAPKLLIYEATNLAEGVPSRFSGSGSGTDFTLTISSLQPEDFATYYCQHFWGTPYTFGQGTKLEIK | binds | – | – | binds | – | –
PVRIG-A11 (VHH, not shown: a dimerising Fc or GST) VHH: QLQLVESGGGLVQPGGSLRLSCAASGFTDDYYAIGWFRQAPGKEREGVSCISGSGGSTNYEDSVKGRFAISRDNAKNMVYLQMNDLKPEDTAVYYCAADPFWSAPCTGHNDRYFDVWGQGTLVTVSS | – | binds | binds | binds | – | –
PVRIG-A75 (VHH, not shown: a dimerising Fc or GST) VHH: QLQLVESGGGLVQSGGSLRLSCAASGRTRSMYVMGWFRQAPGKEREFVGRIKWSGDTTYTSYADFVKGRFTLYGNQARNTVYLQMNSLKPEDTAVYSCAASKFPVSGVPEHYDYWGQGTQVTVSS | – | binds | binds | binds | – | –
PVRIG-A43 (VHH, not shown: a dimerising Fc or GST) VHH: QVQLVESGGGLVQSGGSLRLSCAASGRTRSMYVMGWFRQAPGKEREFVGRIKWSGDTTYTSYADFVKGRFTLYGNQARNTVYLQMNSLKVEDTAVYYCAGRVVPLPSRQRDRYDYWGQGTQVTVSS | – | binds | binds | binds | – | –
PVRIG-A117 (VHH, not shown: a dimerising Fc or GST) VHH: EVQVVESGGGLVQAGGSLRLSCTASEHIYDLYIMGWYRQAPGKDRELVATITYTGSIYIADSVKDRFTISRGNAKNTVSLQMSGLKPEDTAVYYCNADPSGLGRKLYWGQGTQVTVSS | – | binds | binds | binds | – | –
TIGIT-CHI-002 (antibody, V domains shown) VH: EVQLQESGPGLAKPSQTLSLACSVTGYSITSDSWNWIRKFPGNKLEYMGYISYSGNTYYNPSLKSRISITRDTSKNQFYLQLNSVTTEDTATYYCARLDFSNYGGAVDYWGQGTSVTVSS VL: DIVMTQSHTFMSTSVGDRVSITCKASQNVRTAVAWYQQKPGQSPKLMIYSASYRYTGVPDRFTGSGSGTDFTFTISSVQAEDLAVYYCQQYYTTPWTFGGGAKLEIQ | – | – | – | – | – | binds
TIGIT-CHI-006 (antibody, V domains shown) VH: EVQLQESGPGLAKPSQTPSLTCSVTGYSMTSDYWNWIRKFPGNKLEYMGYISYSGRTYYNPSLKSRISITRDTSKNQFYLQLNSVTTEDTATYYCARGDYSNYGGAMYDWGQGTSVTVSS VL: DIVMTQSHKFMSTSVGDRVSITCRASQGVSTTIAWYQQKPGQSPKLLIYSASYRYTGVPDRFTGSGSGTDFTFTISGVQAEDLAVYYCQQYYSSPFTFGGGTKLEIK | – | – | – | – | – | binds
TIGIT-CHI-070 (antibody, V domains shown) VH: QVQLQQPGTELVKPGASVKLSCRASGYTFTNYYMHWVKQRPGRGLEWIGRIDPDSGGSKYNEKFKSKATLTVDKLSSTAYMQLSSLTSEDSAVYYCAREGHYGFYSDYWGQGTTLTVSS VL: DIQMTQSPASLSASVGETVTITCRVSENIYSYLAWYQQKQGKSPQLLVYNAKTLAEGVPSRFSGSGSGTQFSLKINSLQPEDFGNYYCQHHYGNPLTFGAGTKLDLK | – | – | – | – | – | binds
TIGIT-006-H5L3 (antibody, V domains shown) VH: EVQLQESGPGLVKPSETLSLTCAVSGYSMTSDYWNWIRQPPGKKLEYIGYISYSGRTYYNPSLKSRVTISRDTSKNQFSLKLSSVTAADTAVYYCARGDYSNYGGAMYDWGQGTTVTVSS VL: DIVMTQSPDSLAVSLGERATINCRASQGVSTTIAWYQQKPGQSPKLLIYSASYRYTGVPRFSGSGSGTDFTLTISSLQAEDVAVYYCQQYYSSPFTFGGGTKVEIK | – | – | – | – | – | binds

More lines, now with the values ahead:

binding [1] | binding [2] | binding [3] | binding [4] | binding [5] | binding [6] | Binder
– | binds | binds | binds | – | – | PVRIG-A50 (VHH, not shown: a dimerising Fc or GST) VHH: EVQLVESGGGLVQPGGSLRLSCAASGFTFSYYDMSWVRQAPGKGLEWVSTINSNGGRTSYVDSVKGRFTISRDNTKNTLYLQMNSLKPEDTAVYYCVEGDPHNFGLENLSLRDFGSWGQGTQVTVSS
– | binds | binds | binds | – | – | PVRIG-A118 (VHH, not shown: a dimerising Fc or GST) VHH: QVQLVESGGGLVQAGGSLRLSCAASETYFDLYVMGWYRQAPGKDRELVATITYTGSIKIVDSVKDRFTISRGDAKNTVSLQMSSLKPEDTAVYFCNADPSGLGRKVYWGQGTQVTVSS
– | – | – | – | binds | binds | TIGIT-002-H4L3 (antibody, V domains shown) VH: EVQLQESGPGLVKPSETLSLTCAVSGYSITSDSWNWIRQPPGKKLEYIGYISYSGNTYYNPSLKSRVTISRDTSKNQFSLKLSSVTAADTAVYYCARLDFSNYGGAVDYWGQGTTVTVSS VL: DIVMTQSPDSLAVSLGERATINCKASQNVRTAVAWYQQKPGQSPKLMIYSASYRYTGVPDRFSGSGSGTDFTLTISSLQAEDVAVYYCQQYYTTPWTFGGGTKVEIK
– | binds | binds | binds | – | – | PVRIG-A15 (VHH, not shown: a dimerising Fc or GST) VHH: QVQLVESGGGLVQAGGSLRLSCVASGRTFSANTMAWFRQAPGKEREFVAYTRWTDDNTDYASYADFVKGRFTAFRDNTRNTMYLQMNRLRPEDTAVYYCAAATTRGTYYSAGDYNSWGQGTQVTVSS
binds | binds | – | binds | – | – | SRF813-hIgG1 (antibody, V domains shown) VH: QVQLVQSGAEVKKPGSSVKVSCKASGGTFSSAAISWVRQAPGQGLEWMGNIIPIVGIANYAQKFQGRVTITADESTSTAYMELSSLRSEDTAVYYCARDTGRGYTRHFWFDPWGQGTLVTVSS VL: DIQMTQSPSSLSASVGDRVTITCRASQSISSYLNWYQQKPGKAPKLLIYAASSLQSGVPSRFSGSGSGTDFTLTISSLQPEDFATYYCQQSDILYTFGGGTKVEIK
– | binds | binds | binds | – | – | PVRIG-A113 (VHH, not shown: a dimerising Fc or GST) VHH: QLQLVESGGGLVQSGGSLRLSCAASGRTRSMYVMGWFRQAPGKEREFVGRIKWSGDTTYTSYADFVKGRFTLYGNQARNTVYLQMNSLKPEDTAVYYCAALPSDYDYRAASYGVDYWGKGTLVTVSS
– | – | – | – | – | binds | TIGIT-CHI-005 (antibody, V domains shown) VH: QVQLQQSGAELVRPGTSVKVSCKASGYAFTNYLIEWVKQRPGQGLEWIGVINPGSGGTNYKEKFKGKATLTADKSSSTAYMQLSSLTSEDSAVYFCARGEYFFFDYWGQGTTLTVSS VL: DIVMTQSHKFMSTSVGDRVSITCKASQHVSNGVAWYQHKPGQSPKLLIYSASYRYTGVPDRFTGTGSGTDFTFTISSVQAEDLAVYYCQQHYNTPHTFGGGTKLEIK
– | – | – | – | – | binds | TIGIT-070-H1L1 (antibody, V domains shown) VH: EVQLVQSGAEVKKPGASVKVSCKASGYTFTNYYMHWVRQAPGQRLEWMGRIDPDSGGSKYNEKFKSRVTITVDKSASTAYMELSSLRSEDTAVYYCAREGHYGFYSDYWGQGTTVTVSS VL: DIQMTQSPSSLSASVGDRVTITCRVSENIYSYLAWYQQKPGKSPKLLIYNAKTLAEGVPSRFSGSGSGTDFTLTISSLQPEDFATYYCQHHYGNPLTFGPGTKVDIK
